Measurements from the supplement of paper PMC10849652.
The other results are listed elsewhere or left out.

Sequences of proteins named here, by UniProt entry; tags and fusion partners are left off. A change or cut given only in a name is not applied to a line headed by its entry.
UniProt Q8WWL2: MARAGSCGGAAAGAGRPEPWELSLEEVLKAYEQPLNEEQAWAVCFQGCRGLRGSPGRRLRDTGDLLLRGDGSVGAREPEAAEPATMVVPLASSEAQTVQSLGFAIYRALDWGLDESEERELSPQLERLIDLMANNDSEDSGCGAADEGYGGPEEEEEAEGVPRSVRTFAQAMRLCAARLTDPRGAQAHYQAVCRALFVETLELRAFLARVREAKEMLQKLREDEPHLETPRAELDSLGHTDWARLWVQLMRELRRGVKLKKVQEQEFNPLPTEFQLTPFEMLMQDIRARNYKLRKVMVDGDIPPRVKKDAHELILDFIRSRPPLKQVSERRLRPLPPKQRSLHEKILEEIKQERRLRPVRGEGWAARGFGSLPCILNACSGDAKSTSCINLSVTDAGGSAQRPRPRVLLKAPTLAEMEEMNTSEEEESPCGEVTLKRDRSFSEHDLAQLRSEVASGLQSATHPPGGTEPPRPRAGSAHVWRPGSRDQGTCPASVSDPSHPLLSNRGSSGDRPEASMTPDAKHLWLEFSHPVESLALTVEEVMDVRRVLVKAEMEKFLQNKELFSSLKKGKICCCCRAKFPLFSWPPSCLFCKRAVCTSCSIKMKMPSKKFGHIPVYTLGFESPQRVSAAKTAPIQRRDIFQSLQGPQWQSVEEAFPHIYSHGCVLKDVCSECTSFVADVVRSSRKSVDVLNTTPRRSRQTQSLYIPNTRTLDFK
UniProt Q9NYA1, whole entry, looked up: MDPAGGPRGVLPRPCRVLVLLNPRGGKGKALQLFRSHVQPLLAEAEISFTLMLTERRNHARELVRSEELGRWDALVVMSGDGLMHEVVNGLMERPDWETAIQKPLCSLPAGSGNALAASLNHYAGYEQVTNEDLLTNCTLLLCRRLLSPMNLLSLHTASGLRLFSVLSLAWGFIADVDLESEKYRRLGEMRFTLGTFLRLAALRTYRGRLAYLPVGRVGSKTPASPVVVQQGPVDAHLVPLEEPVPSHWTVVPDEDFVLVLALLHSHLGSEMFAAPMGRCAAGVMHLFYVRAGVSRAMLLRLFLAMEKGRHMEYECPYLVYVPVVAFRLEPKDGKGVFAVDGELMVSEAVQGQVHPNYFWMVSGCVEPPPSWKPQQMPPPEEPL
UniProt Q8WVM7: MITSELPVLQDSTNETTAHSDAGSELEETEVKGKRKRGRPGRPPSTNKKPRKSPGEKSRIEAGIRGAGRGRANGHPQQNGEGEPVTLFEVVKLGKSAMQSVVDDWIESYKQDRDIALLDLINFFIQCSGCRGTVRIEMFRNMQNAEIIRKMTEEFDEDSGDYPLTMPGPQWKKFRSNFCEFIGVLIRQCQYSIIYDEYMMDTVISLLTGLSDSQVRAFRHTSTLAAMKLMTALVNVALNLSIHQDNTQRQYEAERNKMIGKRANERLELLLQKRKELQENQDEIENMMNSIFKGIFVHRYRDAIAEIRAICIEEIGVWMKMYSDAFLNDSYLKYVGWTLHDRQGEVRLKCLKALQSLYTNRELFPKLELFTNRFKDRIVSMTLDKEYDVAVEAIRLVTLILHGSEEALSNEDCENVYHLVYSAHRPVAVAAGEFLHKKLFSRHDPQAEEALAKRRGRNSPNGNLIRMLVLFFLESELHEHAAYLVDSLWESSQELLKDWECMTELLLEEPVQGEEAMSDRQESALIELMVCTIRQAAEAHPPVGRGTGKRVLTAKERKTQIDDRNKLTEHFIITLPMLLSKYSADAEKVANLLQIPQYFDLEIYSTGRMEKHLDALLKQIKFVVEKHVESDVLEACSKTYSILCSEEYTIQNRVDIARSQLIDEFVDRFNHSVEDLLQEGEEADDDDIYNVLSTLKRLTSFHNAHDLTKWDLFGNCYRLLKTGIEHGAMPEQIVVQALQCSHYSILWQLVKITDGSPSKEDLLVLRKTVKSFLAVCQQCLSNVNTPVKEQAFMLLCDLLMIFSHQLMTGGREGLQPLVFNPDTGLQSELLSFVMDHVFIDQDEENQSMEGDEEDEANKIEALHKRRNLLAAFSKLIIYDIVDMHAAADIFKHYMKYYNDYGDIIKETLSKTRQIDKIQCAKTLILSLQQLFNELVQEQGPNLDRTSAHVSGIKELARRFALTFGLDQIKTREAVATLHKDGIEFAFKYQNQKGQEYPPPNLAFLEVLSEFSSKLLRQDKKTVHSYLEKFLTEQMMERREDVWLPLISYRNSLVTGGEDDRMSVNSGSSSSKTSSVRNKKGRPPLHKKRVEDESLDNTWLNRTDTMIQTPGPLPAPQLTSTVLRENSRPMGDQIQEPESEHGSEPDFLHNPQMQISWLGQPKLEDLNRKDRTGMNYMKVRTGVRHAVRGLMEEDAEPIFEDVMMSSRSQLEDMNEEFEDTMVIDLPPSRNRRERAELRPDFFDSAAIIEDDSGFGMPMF
UniProt P78362, whole entry, looked up: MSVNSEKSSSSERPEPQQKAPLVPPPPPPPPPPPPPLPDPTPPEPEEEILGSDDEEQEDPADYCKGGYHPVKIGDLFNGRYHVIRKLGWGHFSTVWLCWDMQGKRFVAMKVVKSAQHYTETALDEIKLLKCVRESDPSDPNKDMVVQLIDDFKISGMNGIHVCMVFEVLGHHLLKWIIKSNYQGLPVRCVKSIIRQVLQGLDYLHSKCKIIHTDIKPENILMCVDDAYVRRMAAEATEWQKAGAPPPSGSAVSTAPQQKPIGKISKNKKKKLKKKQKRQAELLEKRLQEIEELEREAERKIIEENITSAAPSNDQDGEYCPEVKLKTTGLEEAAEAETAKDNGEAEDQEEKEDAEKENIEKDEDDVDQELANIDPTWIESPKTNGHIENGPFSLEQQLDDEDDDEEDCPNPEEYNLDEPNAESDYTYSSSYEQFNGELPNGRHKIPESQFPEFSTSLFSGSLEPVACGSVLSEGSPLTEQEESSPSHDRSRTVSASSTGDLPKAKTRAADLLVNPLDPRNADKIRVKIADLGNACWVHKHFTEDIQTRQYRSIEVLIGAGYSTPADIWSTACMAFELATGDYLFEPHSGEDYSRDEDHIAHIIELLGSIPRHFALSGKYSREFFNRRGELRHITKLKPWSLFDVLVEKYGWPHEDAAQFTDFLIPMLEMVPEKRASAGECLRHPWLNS
UniProt Q9NP77: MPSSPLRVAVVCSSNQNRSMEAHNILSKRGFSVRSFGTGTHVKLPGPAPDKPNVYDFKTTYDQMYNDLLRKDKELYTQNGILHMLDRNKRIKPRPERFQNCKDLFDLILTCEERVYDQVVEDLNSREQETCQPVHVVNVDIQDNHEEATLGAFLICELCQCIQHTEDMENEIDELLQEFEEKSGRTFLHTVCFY
UniProt Q9UBP0: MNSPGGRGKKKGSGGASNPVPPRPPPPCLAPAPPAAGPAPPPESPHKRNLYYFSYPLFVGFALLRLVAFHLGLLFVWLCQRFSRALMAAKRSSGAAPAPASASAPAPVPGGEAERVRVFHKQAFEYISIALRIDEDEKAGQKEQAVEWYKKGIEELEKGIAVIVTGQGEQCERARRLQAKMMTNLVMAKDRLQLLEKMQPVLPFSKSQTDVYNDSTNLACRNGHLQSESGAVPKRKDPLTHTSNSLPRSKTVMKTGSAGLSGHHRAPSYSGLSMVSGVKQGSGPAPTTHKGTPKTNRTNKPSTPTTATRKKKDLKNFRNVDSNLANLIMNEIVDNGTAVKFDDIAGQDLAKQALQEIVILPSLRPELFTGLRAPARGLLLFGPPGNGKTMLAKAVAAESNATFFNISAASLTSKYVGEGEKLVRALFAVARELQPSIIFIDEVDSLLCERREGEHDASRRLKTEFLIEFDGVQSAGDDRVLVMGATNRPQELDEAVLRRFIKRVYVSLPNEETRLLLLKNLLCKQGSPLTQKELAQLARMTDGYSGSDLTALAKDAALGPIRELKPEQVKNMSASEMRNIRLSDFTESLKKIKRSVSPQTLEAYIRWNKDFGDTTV
UniProt Q13586, whole entry, looked up: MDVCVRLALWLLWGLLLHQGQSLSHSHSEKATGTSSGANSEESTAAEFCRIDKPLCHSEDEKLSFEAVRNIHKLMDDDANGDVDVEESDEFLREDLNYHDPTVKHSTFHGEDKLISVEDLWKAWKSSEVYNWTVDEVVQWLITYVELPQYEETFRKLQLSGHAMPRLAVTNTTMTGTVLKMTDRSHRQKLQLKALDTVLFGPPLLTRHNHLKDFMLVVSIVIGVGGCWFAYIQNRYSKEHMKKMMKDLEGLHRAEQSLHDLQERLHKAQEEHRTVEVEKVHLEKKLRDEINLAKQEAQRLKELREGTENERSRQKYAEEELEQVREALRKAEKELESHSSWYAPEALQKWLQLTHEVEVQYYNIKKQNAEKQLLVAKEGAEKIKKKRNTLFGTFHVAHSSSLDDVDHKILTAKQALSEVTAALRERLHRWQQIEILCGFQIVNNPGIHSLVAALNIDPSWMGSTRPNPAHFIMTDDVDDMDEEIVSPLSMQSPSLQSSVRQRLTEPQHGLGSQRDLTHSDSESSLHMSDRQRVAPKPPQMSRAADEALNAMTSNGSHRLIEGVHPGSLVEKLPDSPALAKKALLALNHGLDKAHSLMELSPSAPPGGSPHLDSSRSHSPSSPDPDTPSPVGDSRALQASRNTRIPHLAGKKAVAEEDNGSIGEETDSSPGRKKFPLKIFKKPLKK
UniProt P84103: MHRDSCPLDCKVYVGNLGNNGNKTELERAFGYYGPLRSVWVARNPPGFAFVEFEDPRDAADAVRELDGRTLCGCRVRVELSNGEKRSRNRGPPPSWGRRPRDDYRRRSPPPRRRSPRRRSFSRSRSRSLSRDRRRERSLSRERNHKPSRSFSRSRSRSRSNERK
UniProt Q16842: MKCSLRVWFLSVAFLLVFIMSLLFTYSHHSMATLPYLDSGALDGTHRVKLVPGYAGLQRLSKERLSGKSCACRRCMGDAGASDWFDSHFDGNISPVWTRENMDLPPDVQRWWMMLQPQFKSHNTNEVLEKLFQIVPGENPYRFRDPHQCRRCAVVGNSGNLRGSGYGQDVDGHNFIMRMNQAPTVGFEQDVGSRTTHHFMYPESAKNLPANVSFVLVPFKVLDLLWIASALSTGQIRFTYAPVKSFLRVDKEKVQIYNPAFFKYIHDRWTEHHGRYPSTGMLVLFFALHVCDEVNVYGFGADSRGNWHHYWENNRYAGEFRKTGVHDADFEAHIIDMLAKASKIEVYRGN
UniProt Q8N0X7: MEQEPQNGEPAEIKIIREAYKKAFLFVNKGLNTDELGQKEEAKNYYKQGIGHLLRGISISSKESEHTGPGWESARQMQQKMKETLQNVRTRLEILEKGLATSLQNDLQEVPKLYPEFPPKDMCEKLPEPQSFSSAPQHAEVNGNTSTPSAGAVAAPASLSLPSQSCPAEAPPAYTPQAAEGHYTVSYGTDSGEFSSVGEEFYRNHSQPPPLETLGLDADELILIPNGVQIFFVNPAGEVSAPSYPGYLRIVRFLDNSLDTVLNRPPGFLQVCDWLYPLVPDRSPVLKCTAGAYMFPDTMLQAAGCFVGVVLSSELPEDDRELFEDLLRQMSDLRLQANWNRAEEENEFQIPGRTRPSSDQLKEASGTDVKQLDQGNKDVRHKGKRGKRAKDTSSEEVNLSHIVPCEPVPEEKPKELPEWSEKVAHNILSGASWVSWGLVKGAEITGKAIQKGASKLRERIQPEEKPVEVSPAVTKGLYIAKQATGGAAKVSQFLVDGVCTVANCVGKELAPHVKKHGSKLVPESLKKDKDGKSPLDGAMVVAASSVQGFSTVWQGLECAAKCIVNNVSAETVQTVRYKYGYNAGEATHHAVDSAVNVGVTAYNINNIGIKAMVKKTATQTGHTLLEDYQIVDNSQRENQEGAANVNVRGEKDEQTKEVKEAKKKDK
UniProt Q16629: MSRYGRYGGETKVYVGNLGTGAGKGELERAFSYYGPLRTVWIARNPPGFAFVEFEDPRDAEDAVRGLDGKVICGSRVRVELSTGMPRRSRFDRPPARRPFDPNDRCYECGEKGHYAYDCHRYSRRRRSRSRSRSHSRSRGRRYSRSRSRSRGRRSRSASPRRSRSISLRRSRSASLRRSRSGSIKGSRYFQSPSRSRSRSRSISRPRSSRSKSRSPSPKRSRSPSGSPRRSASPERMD
UniProt Q8WXA9: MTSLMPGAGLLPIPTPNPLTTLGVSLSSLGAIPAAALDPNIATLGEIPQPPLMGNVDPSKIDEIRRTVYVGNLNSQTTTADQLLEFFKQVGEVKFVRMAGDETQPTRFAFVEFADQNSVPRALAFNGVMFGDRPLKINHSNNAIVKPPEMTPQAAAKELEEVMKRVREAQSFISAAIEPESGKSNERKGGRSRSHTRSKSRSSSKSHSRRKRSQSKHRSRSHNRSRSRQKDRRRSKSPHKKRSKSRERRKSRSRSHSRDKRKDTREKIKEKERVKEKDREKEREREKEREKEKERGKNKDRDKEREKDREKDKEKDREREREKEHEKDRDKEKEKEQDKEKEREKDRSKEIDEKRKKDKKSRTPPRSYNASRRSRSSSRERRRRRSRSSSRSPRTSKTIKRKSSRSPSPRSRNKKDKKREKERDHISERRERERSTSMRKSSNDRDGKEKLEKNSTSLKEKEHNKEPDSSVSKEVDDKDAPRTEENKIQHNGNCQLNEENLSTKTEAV

The targets below were run with C[C@H](Nc1ncnc2nc[nH]c12)c1cc2cccc(Cl)c2c(=O)n1-c1ccccc1 [duvelisib] (assay: log2 fold change, soluble protein after heating vs DMSO (PISA); higher = thermal stabilisation; K562 cells, 10 uM, 30 min; active = over 0.2 and 3.5 SD of the protein, either way, in both replicates (recomputed)).
Summary of the method: (§1)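 Values are thermal stability changes relative to control samples and are taken from duplicates. They are stated as log2 fold changes. Before quantification by TMTpro 16plex LC-MS/MS with equalised channel sums, K562 cells at 2×10^6 cells/mL were treated with 10 μM compound for 30 min, heated in aliquots for 3 min across 48°C-58°C, pooled, extracted in PBS with 0.5% NP-40 at 4°C, and centrifuged at 21,000xg for 90 min to give the soluble supernatant.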

log2 fold change, inactive:
SPIRE2 (UniProt Q8WWL2) -0.256
SPHK1 isoform 2 (UniProt Q9NYA1) 0.044
SPPL2A (UniProt Q8TCT8) 0.12
SRA1 (UniProt Q9HD15) 0.039
STAG1 (UniProt Q8WVM7) 0.037
SRP54 (UniProt P61011) 0.017
SRSF1 (UniProt Q07955) -0.103
STAT1 (UniProt P42224) -0.045
ST6GALNAC1 (UniProt Q9NSC7) 0.015
SPRYD4 (UniProt Q8WW59) 0.042
SRGAP2 (UniProt O75044) 0.043
SRPK2 isoform 2 (UniProt P78362) -0.119
STK24 (UniProt Q9Y6E0) 0.034
SPECC1L (UniProt Q69YQ0) 0.108
SSU72 (UniProt Q9NP77) 0.097
SPTLC1 (UniProt O15269) 0.047
STAU2 (UniProt Q9NUL3) 0.253
SPATA5L1 (UniProt Q9BVQ7) 0.028

These targets were tested with Cc1cc(Nc2cc(CN3CCOCC3)c3nc(C)c(Cc4ccc(Cl)cc4F)n3n2)n[nH]1 [gandotinib] in the same assay as above.
Summary of the method: as §1

log2 fold change, inactive:
SPAST (UniProt Q9UBP0) -0.025
SPIRE2 (UniProt Q8WWL2) 0.22
SPHK1 isoform 2 (UniProt Q9NYA1) -0.096
SPPL2A (UniProt Q8TCT8) 0.199
SRA1 (UniProt Q9HD15) -0.041
STIM1 (UniProt Q13586) -0.008
SPTBN1 (UniProt Q01082) -0.039
SRSF3 (UniProt P84103) 0.247
SPECC1 (UniProt Q5M775) -0.18
STAG1 (UniProt Q8WVM7) -0.026
SPPL2B (UniProt Q8TCT7) -0.004
SRP54 (UniProt P61011) 0.004
ST3GAL2 (UniProt Q16842) 0.127
SRSF1 (UniProt Q07955) 0.064
STAT1 (UniProt P42224) 0.081
STAT5B (UniProt P51692) -0.209
STEAP3 isoform 2 (UniProt Q658P3) -0.032
SPRYD4 (UniProt Q8WW59) -0.094
SRGAP2 (UniProt O75044) -0.104
SRPK2 isoform 2 (UniProt P78362) 0.248
SPART (UniProt Q8N0X7) -0.088
STK24 (UniProt Q9Y6E0) -0.066
STAT3 (UniProt P40763) -0.184
SPECC1L (UniProt Q69YQ0) 0.052
SSU72 (UniProt Q9NP77) -0.079
SPTLC1 (UniProt O15269) -0.017
SRFBP1 (UniProt Q8NEF9) 0.083
STAU2 (UniProt Q9NUL3) 0.262
STAT5A (UniProt P42229) -0.033
SRSF4 (UniProt Q08170) 0.077
SRP72 (UniProt O76094) -0.08
SRSF7 (UniProt Q16629) 0.319
SSR4 (UniProt P51571) -0.055
SPTBN4 (UniProt Q9H254) -0.03
SPATA5L1 (UniProt Q9BVQ7) 0.028
SPG11 (UniProt Q96JI7) 0.173
STAT6 (UniProt P42226) -0.269
STARD9 (UniProt Q9P2P6) 0.04
SREK1 isoform 2 (UniProt Q8WXA9) 0.014
